Values quoted from earlier work as cited in patent US20060035881A1, “Use of targeted oxidative therapeutic formulation in endodontic treatment” (priority 2004, published 2006).
For at least one compound, name, drawing or mass did not settle the structure.

System: osteoblast-like cells
Details: clinical concentrations that often exceed 10 mcg/ml; in vitro

CO[C@H]1/C=C/O[C@@]2(C)Oc3c(C)c(O)c4c(O)c(c(/C=N/N5CCN(C)CC5)c(O)c4c3C2=O)NC(=O)/C(C)=C\C=C\[C@H](C)[C@H](O)[C@@H](C)[C@@H](O)[C@@H](C)[C@H](OC(C)=O)[C@@H]1C [Rifampicin]
effect on proliferation of osteoblast-like cells: inhibit the proliferation of osteoblast-like cells
